# In publication PMC7819943, “Rice protein-binding microarrays: a tool to detect cis-acting elements near promoter regions in rice”:
# Sequences of proteins named here, by UniProt entry; tags and fusion partners are left off.
# UniProt Q0JBA9, entry or part of it: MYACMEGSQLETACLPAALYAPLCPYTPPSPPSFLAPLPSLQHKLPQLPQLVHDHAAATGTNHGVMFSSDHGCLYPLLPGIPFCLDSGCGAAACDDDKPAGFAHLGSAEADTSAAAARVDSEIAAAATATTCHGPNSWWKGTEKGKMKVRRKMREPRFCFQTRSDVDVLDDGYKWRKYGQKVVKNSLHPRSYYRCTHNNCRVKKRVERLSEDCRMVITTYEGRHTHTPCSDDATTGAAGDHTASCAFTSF
# Some of the results follow.
# Molecular target: OsWRKY34 (Oryza sativa, UniProt Q0JBA9 1-250)
# Test: protein-binding microarray (RPBM); PBS, 2% BSA, 51.3 ng/ul salmon testes DNA, 50 uM zinc acetate, 200 nM TF, 25 C, 1 h; high values mean tight binding
# Conditions: protein: recombinant; tags: N-terminal polyhistidine and DsRed monomer fusion (pET32a); label: CyDye5-dUTP incorporated in the synthesized complementary strand; 3' TTTTT single-stranded linker to array surface; dsDNA, one strand shown
# Method in brief: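 Per-feature fluorescence intensity (arbitrary units), read on an Axon 4000B scanner, is the binding signal. Transcription factors carrying an N-terminal polyhistidine tag and DsRed fusion were expressed in E. coli BL21-CodonPlus and purified on Ni–NTA. A custom Agilent array, made double-stranded by primer extension with Cy5-dUTP and blocked with 2% BSA, was incubated with 200 nM protein in PBS, 2% BSA, salmon testes DNA and 50 µM zinc acetate at 25 °C for 1 h and then washed.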
row,Sequence,binding signal
1,GGCGTTATATCTGGTTTTGTGGCTGAGGGAGGTAATTTAGCGGAGTCACCTAGTGCAG,11700 fluorescence intensity (a.u.)
2,TTCCCATTCTCTTGCTCACTATATATGCCTGTCAATTTTTCGGAGTCACCTAGTGCAG,9140 fluorescence intensity (a.u.)
3,TTTTGTTCAGTTATTCTTCCTCGTGAGGTGATGTCCTTTTCGGAGTCACCTAGTGCAG,8900 fluorescence intensity (a.u.)
4,AGCCATTACCCAAACCCGCGCTCCGCTCGCTCTCCACCGCCGGAGTCACCTAGTGCAG,8940 fluorescence intensity (a.u.)
5,TGGCATGTTTCTCCTTTACGCGTTTTAAGCTTTCCATCGACGGAGTCACCTAGTGCAG,12900 fluorescence intensity (a.u.)
6,AGCAAGTCATCCACATCGTTGCTCATACTTGTTGTTCACGCGGAGTCACCTAGTGCAG,8410 fluorescence intensity (a.u.)
7,CACTGTCATCCACTCGACCTGCCACGACACCCGCCACCGCCGGAGTCACCTAGTGCAG,8690 fluorescence intensity (a.u.)
8,GAAATCACACCTCGTCGCAGCCAAGATCTCCTCCAGTCCACGGAGTCACCTAGTGCAG,9670 fluorescence intensity (a.u.)
9,TCGGATGGTTGTCAGGTTGGTTGAAGCTAGTTTCTAATTACGGAGTCACCTAGTGCAG,11300 fluorescence intensity (a.u.)
10,CTGCTGCAGTTGAGCTGTACTGTTTTGGTGGGTTGGTTTTCGGAGTCACCTAGTGCAG,13900 fluorescence intensity (a.u.)
11,TGGATGTATGGGATGGCACGGGGCGAATGAATTCGCATTCCGGAGTCACCTAGTGCAG,9340 fluorescence intensity (a.u.)
12,ATGTTTGGGTGGGTCGCCAGGGCCGATGATCACAACTCTCCGGAGTCACCTAGTGCAG,9100 fluorescence intensity (a.u.)
13,AACTACTACACACCGGATCAGGCTTCTCCACCTTCCAAATCGGAGTCACCTAGTGCAG,8280 fluorescence intensity (a.u.)
14,AAAGCGGACGTCATCATTCATCCTCGAGCCCCTCAACTGGCGGAGTCACCTAGTGCAG,9960 fluorescence intensity (a.u.)
15,ATTTTCGATATTGTTTTTCGTTTAACATTTATATCCAATTCGGAGTCACCTAGTGCAG,10800 fluorescence intensity (a.u.)
16,CCCTCAATGTGTGGTTAGGGTTTGGCTCCATGGATGACTCCGGAGTCACCTAGTGCAG,10400 fluorescence intensity (a.u.)
17,CAGTACGCTACTATTCATACGCTGAATTTGTCTTTTTATACGGAGTCACCTAGTGCAG,9120 fluorescence intensity (a.u.)
18,GCTGTATGCCTTTATTAATATGTATGCTATATTTACTGTTCGGAGTCACCTAGTGCAG,9060 fluorescence intensity (a.u.)
19,AGGGAGCAGGGTGGGCGTGTCTTCGTACATTGTTGCCAGGCGGAGTCACCTAGTGCAG,10400 fluorescence intensity (a.u.)
20,CGTTCACAACTCACTGGGGTCTGGGCTTAATAATCTTCTTCGGAGTCACCTAGTGCAG,12800 fluorescence intensity (a.u.)
21,TCATCATCGTCTGGGCTGCCATGTCATTCAACTCCCTCTACGGAGTCACCTAGTGCAG,11000 fluorescence intensity (a.u.)
22,ATGCATCTTATTTCTTTCTAGAATGCTCTGCTACATAGTACGGAGTCACCTAGTGCAG,8250 fluorescence intensity (a.u.)
23,GATCCGGCTCATTTCAGCCTCACACCCAGCAACACTTCGCCGGAGTCACCTAGTGCAG,8780 fluorescence intensity (a.u.)
24,AAAATCAAAACGCTACCACAGCCACACTCTCACACACACACGGAGTCACCTAGTGCAG,9150 fluorescence intensity (a.u.)
25,ATTAGATGTTTGTTTTCTTTTCTTAGTCAAACTTCTTTTACGGAGTCACCTAGTGCAG,8830 fluorescence intensity (a.u.)
26,TGTTCTTGCGCCGGTAAAGTCGCCGACGGGGAGGGGTAAACGGAGTCACCTAGTGCAG,11600 fluorescence intensity (a.u.)
27,TGTAAATTTCCCGGCGGCTTCTCGCATCTCGTTCATCGTCCGGAGTCACCTAGTGCAG,8090 fluorescence intensity (a.u.)

row,Sequence,binding signal
1,GATTCCAGCCAATTGACTGTGTTCCTTGATGATTATACCACGGAGTCACCTAGTGCAG,9470 fluorescence intensity (a.u.)
2,TTAATCTTCACGCGTTTGCTTACTCCTATATATATATGTACGGAGTCACCTAGTGCAG,9730 fluorescence intensity (a.u.)
3,GTGTTATGAGTTGTGCCACCGTCTTCTCTCCCGTATAATCCGGAGTCACCTAGTGCAG,9390 fluorescence intensity (a.u.)
4,TCAATGTCATCTCTAACCTTTTTTTCCCTACACAGAATGTCGGAGTCACCTAGTGCAG,8410 fluorescence intensity (a.u.)
5,GGGTTCGGCTTGCCACTCATGGTGACAAAGCTGCCATGAGCGGAGTCACCTAGTGCAG,8420 fluorescence intensity (a.u.)
6,GCGCCAGCATCGCCGTGCTTGTAATCTTCATCTTAATTACCGGAGTCACCTAGTGCAG,8400 fluorescence intensity (a.u.)
7,GAACTGGCATAAGTTGTTTCCTTTTTTCCACCCCTTTTTACGGAGTCACCTAGTGCAG,9240 fluorescence intensity (a.u.)
8,TCCGCTGGTTGGTATCCTACTAATTCTGTCCTACACGTTTCGGAGTCACCTAGTGCAG,9300 fluorescence intensity (a.u.)
9,TAATATGAGCTACAGCTGTGTTGGGGCGCTTTTTTTCTTTCGGAGTCACCTAGTGCAG,8870 fluorescence intensity (a.u.)
10,CGCTCATCGGCCTTTGTCACCCTGCCGCCCTCTACGAGGGCGGAGTCACCTAGTGCAG,10400 fluorescence intensity (a.u.)
11,ATCCTCTGTTTTTTCATTCCTACGATTCAAAGGGGCCCTTCGGAGTCACCTAGTGCAG,10600 fluorescence intensity (a.u.)
12,AAGGAGGAGCAAGGATTGTTGTTGTTTCGCTGTCAGATCGCGGAGTCACCTAGTGCAG,9840 fluorescence intensity (a.u.)
13,ACGCTCATCCCTTCTTCCACCCTTTCCTTCCCCTCCTCCGCGGAGTCACCTAGTGCAG,8250 fluorescence intensity (a.u.)
14,ATCTCACCAAGGATTTCTTCTATAGCTACACATACCCCATCGGAGTCACCTAGTGCAG,8880 fluorescence intensity (a.u.)
15,TAGGGATGGATGAGGACTGCCGTTTTTGTGAAAGTTTGGGCGGAGTCACCTAGTGCAG,8140 fluorescence intensity (a.u.)
16,TCTTGGCGATTTGTCTGGTTCTGCCTGCTCTTGCTGGTTTCGGAGTCACCTAGTGCAG,12300 fluorescence intensity (a.u.)
17,CTTTTGGGTAATCCTGTTGTTGGGTTCTATGGGCCCTGGCCGGAGTCACCTAGTGCAG,9680 fluorescence intensity (a.u.)
18,GACACCCATCCATCCGCCTCCTGCCTGCGCCGTCGGCCGACGGAGTCACCTAGTGCAG,12000 fluorescence intensity (a.u.)
19,GCATTCCTCAATTTTTCAACGACGTTTGTCAGTTTGCGACCGGAGTCACCTAGTGCAG,8400 fluorescence intensity (a.u.)
20,ACTCTCTCCGTTTCGAAATGTTTGACGCTGTTGACTTTTTCGGAGTCACCTAGTGCAG,17500 fluorescence intensity (a.u.)
21,CTTGACAAGTGGCATAAGATCGTTCATCATTACCCTTGACCGGAGTCACCTAGTGCAG,8290 fluorescence intensity (a.u.)
22,CCGTCGCCGTGCCACCCACTCCACCATCAGTCCATCACATCGGAGTCACCTAGTGCAG,10400 fluorescence intensity (a.u.)
23,TGGGTGACCAACACGTTCAGACCCATCATACCTCATTTATCGGAGTCACCTAGTGCAG,11000 fluorescence intensity (a.u.)
24,TCTCTCAATCTCTCGTTACTCACCAAGGGTCCAAGGTGACCGGAGTCACCTAGTGCAG,9270 fluorescence intensity (a.u.)
25,GCCATCTCCAACGCGCCGTACCTCATGCTGGCCGCGGCCGCGGAGTCACCTAGTGCAG,8690 fluorescence intensity (a.u.)
26,TTTTGCCTTTCGCACGGATTTTCTGGCAAGCTTGTGATTCCGGAGTCACCTAGTGCAG,8460 fluorescence intensity (a.u.)
27,CAGTGCCATTTCTTTTCTCTGTTATATGTGTAGGCACCATCGGAGTCACCTAGTGCAG,11000 fluorescence intensity (a.u.)

# Some values from the list.
# binding signal with CTTGACAAGTGGCATAAGATCGTTCATCATTACCCTTGACCGGAGTCACCTAGTGCAG reads 8290 fluorescence intensity (a.u.)
# binding signal with ATCCTCTGTTTTTTCATTCCTACGATTCAAAGGGGCCCTTCGGAGTCACCTAGTGCAG reads 10600 fluorescence intensity (a.u.)
# binding signal with GCTGTATGCCTTTATTAATATGTATGCTATATTTACTGTTCGGAGTCACCTAGTGCAG reads 9060 fluorescence intensity (a.u.)
# binding signal with GCATTCCTCAATTTTTCAACGACGTTTGTCAGTTTGCGACCGGAGTCACCTAGTGCAG reads 8400 fluorescence intensity (a.u.)
